For the assay, the target named is hBMP6 (human) (UniProt P22004). Kind of assay: Biacore (SPR).

By UniProt entry, the sequences of proteins in these tests, tags left out. Residues count along the entry.
UniProt P22004, residues 382-513: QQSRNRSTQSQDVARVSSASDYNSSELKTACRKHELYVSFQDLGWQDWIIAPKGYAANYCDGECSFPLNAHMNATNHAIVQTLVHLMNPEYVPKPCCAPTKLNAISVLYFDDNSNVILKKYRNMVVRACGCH

Results are given in words; binding and its absence hold for the method and conditions named. Some entries that bind do so weakly or less than the wild type.

B1: mALK3(24-152)-mFc derived from HEK 293 cells (Fc fusion)
chain: GAQNLDSMLHGTGMKSDLDQKKPENGVTLAPEDTLPFLKCYCSGHCPDDAINNTCITNGHCFAIIEEDDQGETTLTSGCMKYEGSDFQCKDSPKAQLRRTIECCRTNLCNQYLQPTLPPVVIGPFFDGSIRTGGGEPRVPITQNPCPPLKECPPCAAPDLLGGPSVFIFPPKIKDVLMISLSPMVTCVVVDVSEDDPDVQISWFVNNVEVHTAQTQTHREDYNSTLRVVSALPIQHQDWMSGKEFKCKVNNRALPSPIEKTISKPRGPVRAPQVYVLPPPAEEMTKKEFSLTCMITGFLPAEIAVDWTSNGRTEQNYKNTATVLDSDGSYFMYSKLRVQKSTWERGSLFACSVVHEGLHNHLTTKTISRSLGK
notes: The Gly-Ala at 23-24 may also be absent, since the main species of the human construct starts at Gln; also called mALK3-mFc
B1: the binding result is given as “binds”.

The record behind these values is patent US20180305438A1 (ACCELERON PHARMA, published 2018).
